{"source": "paper PMC10778480", "target": "Beclin1 (BECN1) (human (endogenous in T24/DDP)), Q14457", "assay": "co-IP; lysate of T24/DDP cells (RIPA lysis buffer); anti-Flag beads at 4 °C overnight, or antibody for 4-6 h then Protein A/G beads overnight; washed three times with cold lysis buffer; which protein was precipitated not given", "details": "remark: other sources report otherwise", "note": "No constants are given. Whether binding was seen depends on the method and setting. In cells and extracts the contact can be indirect. Some binding calls cover weakened binding; strength is not graded here.", "data": [{"binder": "Sirtuin 1 (SIRT1), Q96EB6 1-747 (enzyme) MADEAALALQPGGSPSAAGADREAASSPAGEPLRKRPRRDGPGLERSPGEPGGAAPEREVPAAARGCPGAAAAALWREAEAEAAAAGGEQEAQATAAAGEGDNGPGLQGPSREPPLADNLYDEDDDDEGEEEEEAAAAAIGYRDNLLFGDEIITNGFHSCESDEEDRASHASSSDWTPRPRIGPYTFVQQHLMIGTDPRTILKDLLPETIPPPELDDMTLWQIVINILSEPPKRKKRKDINTIEDAVKLLQECKKIIVLTGAGVSVSCGIPDFRSRDGIYARLAVDFPDLPDPQAMFDIEYFRKDPRPFFKFAKEIYPGQFQPSLCHKFIALSDKEGKLLRNYTQNIDTLEQVAGIQRIIQCHGSFATASCLICKYKVDCEAVRGDIFNQVVPRCPRCPADEPLAIMKPEIVFFGENLPEQFHRAMKYDKDEVDLLIVIGSSLKVRPVALIPSSIPHEVPQILINREPLPHLHFDVELLGDCDVIINELCHRLGGEYAKLCCNPVKLSEITEKPPRTQKELAYLSELPPTPLHVSEDSSSPERTSPPDSSVIVTLLDQAAKSNDDLDVSESKGCMEEKPQEVQTSRNVESIAEQMENPDLKNVGSSTGEKNERTSVAGTVRKCWPNRVAKEQISRRLDGNQYLFLPPNRYIFHGAEVYSDSEDDVLSSSSCGSNSDSGTCQSPSLEEPMEDESEIEEFYNGLEDEPDVPERAGGAGFGTDGDDQEAINEAISVKQEVTDMNYPSNKS", "values": [{"measurement": "binding", "result": "binds"}]}]}
